For some of these results: Expression grades refer to the transcript from which the peptide derives; gene names, where given, were looked up from the sequence.
Columns and labels:
HLA-A*24 = test: Identification and relative LC-MS quantitation of HLA-A*24-presented tumor-associated peptides on tissue samples (presentation profiles, Tables 14A, 14B, 16, FIG. 1); set-up: species or system human; key to Presentation score GC / Presentation score NSCLC / Presentation score PCA / Presentation score GB / Presentation score HCC / Presentation score RCC: specifically presented on tumors (++++); very highly over-presented on tumors compared to a panel of normal tissues (+++); highly over-presented on tumors compared to a panel of normal tissues (++); over-presented on tumors compared to a panel of normal tissues (+); conditions: for Presentation score GB: glioblastoma (N = 18) vs panel of normal tissues (N = 70); for Presentation score NSCLC: non-small cell lung cancer (N = 91) vs panel of normal tissues (N = 70); for Presentation score PCA: prostate cancer (N = 40) vs panel of normal tissues (N = 70); for Peptide Presentation on cancer entities: Table 14A, HLA-A*24-binding tumor-associated peptides, cancer entities on which the peptide was found presented
source genes (mRNA) [1] = test: Gene and exon expression of source genes, TCGA tumor samples compared with normal tissue samples (Lonsdale, 2013) (Table 17); set-up: species or system human; conditions: tumor expression more than 2-fold above highest 75% percentile of high and medium risk normal tissues; for Target coverage: over-expression category of source gene, BLCA: Bladder urothelial carcinoma (N = 408); for Target coverage: over-expression category of source gene, BRCA: Breast cancer (N = 1104); for Target coverage: over-expression category of source gene, CHOL: Cholangiocarcinoma (N = 36); for Target coverage: over-expression category of source gene, READ: Colon and rectal adenocarcinoma (N = 167); for Target coverage: over-expression category of source gene, COAD: Colon and rectal adenocarcinoma (N = 462); for Target coverage: over-expression category of source gene, GBM: Glioblastoma multiforme (N = 169); for Target coverage: over-expression category of source gene, LIHC: Liver hepatocellular carcinoma (N = 374); for Target coverage: over-expression category of source gene, LGG: Lower grade glioma (N = 534); for Target coverage: over-expression category of source gene, LUSC: Lung squamous cell carcinoma (N = 503); for Target coverage: over-expression category of source gene, DLBC: Lymphoid neoplasm diffuse large B-cell lymphoma (N = 48); for Target coverage: over-expression category of source gene, OV: Ovarian serous cystadenocarcinoma (N = 309); for Target coverage: over-expression category of source gene, PRAD: Prostate adenocarcinoma (N = 498); for Target coverage: over-expression category of source gene, SKCM: Skin cutaneous melanoma (N = 473); for Target coverage: over-expression category of source gene, UCEC: Uterine corpus endometrial carcinoma (N = 546); for Target coverage: over-expression category of source gene, LAML: Acute Myeloid Leukemia (N = 173); for Target coverage: over-expression category of source gene, ESCA: Esophageal cancer (N = 185); for Target coverage: over-expression category of source gene, LUAD: Lung adenocarcinoma (N = 517); for Target coverage: over-expression category of source gene, STAD: Stomach adenocarcinoma (N = 415)
source genes (mRNA) [2] = test: Expression profiling of source genes by in-house RNASeq of tumor and normal tissues (Table 18, FIG. 2); set-up: species or system human; key: very highly over-expressed in tumors compared to a panel of normal tissues (+++); highly over-expressed in tumors compared to a panel of normal tissues (++); over-expressed in tumors compared to a panel of normal tissues (+); conditions: source gene of peptide; for Expression score GB: glioblastoma (N = 24) vs panel of normal tissues; for Expression score OC: ovarian cancer (N = 12) vs panel of normal tissues; for Expression score NHL: non-Hodgkin lymphoma (N = 10) vs panel of normal tissues; for Expression score NSCLC: non-small cell lung cancer (N = 11) vs panel of normal tissues; for Expression score SCLC: small cell lung cancer (N = 10) vs panel of normal tissues

Row | Substance | Presentation score GB (HLA-A*24; HLA-A*24 peptides) | Presentation score NSCLC (HLA-A*24; HLA-A*24 peptides) | Presentation score PCA (HLA-A*24; HLA-A*24 peptides) | Peptide Presentation on cancer entities (HLA-A*24) | Target coverage: over-expression category of source gene, BLCA (source genes (mRNA) [1]) | Target coverage: over-expression category of source gene, BRCA (source genes (mRNA) [1]) | Target coverage: over-expression category of source gene, CHOL (source genes (mRNA) [1]) | Target coverage: over-expression category of source gene, READ (source genes (mRNA) [1]) | Target coverage: over-expression category of source gene, COAD (source genes (mRNA) [1]) | Target coverage: over-expression category of source gene, GBM (source genes (mRNA) [1]) | Target coverage: over-expression category of source gene, LIHC (source genes (mRNA) [1]) | Target coverage: over-expression category of source gene, LGG (source genes (mRNA) [1]) | Target coverage: over-expression category of source gene, LUSC (source genes (mRNA) [1]) | Target coverage: over-expression category of source gene, DLBC (source genes (mRNA) [1]) | Target coverage: over-expression category of source gene, OV (source genes (mRNA) [1]) | Target coverage: over-expression category of source gene, PRAD (source genes (mRNA) [1]) | Target coverage: over-expression category of source gene, SKCM (source genes (mRNA) [1]) | Target coverage: over-expression category of source gene, UCEC (source genes (mRNA) [1]) | Expression score GB (source genes (mRNA) [2]) | Expression score OC (source genes (mRNA) [2]) | also measured
1 | 283: peptide found in ALKBH2 (gene looked up) (TYGDAGLTYTF; listed as Homo sapiens) [compound 283] | + | +++ | +++ | GB, GC, NSCLC, PCA, RCC | C (>=5% of tumors above the cutoff, but <20%) | C (>=5% of tumors above the cutoff, but <20%) | C (>=5% of tumors above the cutoff, but <20%) | C (>=5% of tumors above the cutoff, but <20%) | C (>=5% of tumors above the cutoff, but <20%) | B (>= 20% of tumors above the cutoff, but <50%) | B (>= 20% of tumors above the cutoff, but <50%) | B (>= 20% of tumors above the cutoff, but <50%) | C (>=5% of tumors above the cutoff, but <20%) | C (>=5% of tumors above the cutoff, but <20%) | C (>=5% of tumors above the cutoff, but <20%) | B (>= 20% of tumors above the cutoff, but <50%) | C (>=5% of tumors above the cutoff, but <20%) | B (>= 20% of tumors above the cutoff, but <50%) | + | + | Presentation score GC (HLA-A*24; HLA-A*24 peptides, gastric cancer (N = 44) vs panel of normal tissues (N = 70)): ++; Presentation score RCC (HLA-A*24; HLA-A*24 peptides, renal cell carcinoma (N = 2) vs panel of normal tissues (N = 70)): +++; Expression score HCC (source genes (mRNA) [2]; hepatocellular carcinoma (N = 15) vs panel of normal tissues): +
2 | 284: peptide found in NCAPD3 (gene looked up) (RYLNKAFHI; listed as Homo sapiens) [compound 284] |  |  | ++++ | PCA | C (>=5% of tumors above the cutoff, but <20%) | B (>= 20% of tumors above the cutoff, but <50%) |  | B (>= 20% of tumors above the cutoff, but <50%) | B (>= 20% of tumors above the cutoff, but <50%) | C (>=5% of tumors above the cutoff, but <20%) |  | C (>=5% of tumors above the cutoff, but <20%) | B (>= 20% of tumors above the cutoff, but <50%) | C (>=5% of tumors above the cutoff, but <20%) | B (>= 20% of tumors above the cutoff, but <50%) | A (>=50% of tumors above the cutoff) | C (>=5% of tumors above the cutoff, but <20%) | C (>=5% of tumors above the cutoff, but <20%) | + | + | Target coverage: over-expression category of source gene, LAML (source genes (mRNA) [1]): A (>=50% of tumors above the cutoff); Target coverage: over-expression category of source gene, ESCA (source genes (mRNA) [1]): A (>=50% of tumors above the cutoff); Target coverage: over-expression category of source gene, LUAD (source genes (mRNA) [1]): C (>=5% of tumors above the cutoff, but <20%); Target coverage: over-expression category of source gene, STAD (source genes (mRNA) [1]): B (>= 20% of tumors above the cutoff, but <50%); Expression score NHL (source genes (mRNA) [2]): +; Expression score NSCLC (source genes (mRNA) [2]): +; Expression score PCA (source genes (mRNA) [2]; prostate cancer and benign prostate hyperplasia (N = 5) vs panel of normal tissues): +++; Expression score SCLC (source genes (mRNA) [2]): +
3 | 285: peptide found in MSH6 (gene looked up) (HYPPVQVLF; listed as Homo sapiens) [compound 285] | + | + |  | GB, GC, NSCLC, HCC, PCA | A (>=50% of tumors above the cutoff) | A (>=50% of tumors above the cutoff) | A (>=50% of tumors above the cutoff) | A (>=50% of tumors above the cutoff) | A (>=50% of tumors above the cutoff) | A (>=50% of tumors above the cutoff) | A (>=50% of tumors above the cutoff) | B (>= 20% of tumors above the cutoff, but <50%) | A (>=50% of tumors above the cutoff) | A (>=50% of tumors above the cutoff) | A (>=50% of tumors above the cutoff) | A (>=50% of tumors above the cutoff) | A (>=50% of tumors above the cutoff) | A (>=50% of tumors above the cutoff) |  | ++ | Target coverage: over-expression category of source gene, LAML (source genes (mRNA) [1]): A (>=50% of tumors above the cutoff); Target coverage: over-expression category of source gene, KIRC (source genes (mRNA) [1]; Clear cell kidney carcinoma (N = 534)): A (>=50% of tumors above the cutoff); Target coverage: over-expression category of source gene, ESCA (source genes (mRNA) [1]): A (>=50% of tumors above the cutoff); Target coverage: over-expression category of source gene, LUAD (source genes (mRNA) [1]): A (>=50% of tumors above the cutoff); Target coverage: over-expression category of source gene, PAAD (source genes (mRNA) [1]; Pancreatic ductal adenocarcinoma (N = 179)): B (>= 20% of tumors above the cutoff, but <50%); Target coverage: over-expression category of source gene, KIRP (source genes (mRNA) [1]; Papillary kidney carcinoma (N = 291)): B (>= 20% of tumors above the cutoff, but <50%); Target coverage: over-expression category of source gene, STAD (source genes (mRNA) [1]): B (>= 20% of tumors above the cutoff, but <50%); Expression score BRCA (source genes (mRNA) [2]; BRCA tumors vs panel of normal tissues): +; Expression score AML (source genes (mRNA) [2]; acute myeloid leukemia (N = 11) vs panel of normal tissues): +; Expression score OSCAR (source genes (mRNA) [2]; esophageal cancer incl. gastric-esophageal junction (N = 11) vs panel of normal tissues): +; Expression score NHL (source genes (mRNA) [2]): +; Expression score NSCLC (source genes (mRNA) [2]): +; Expression score SCLC (source genes (mRNA) [2]): ++; Expression score UBC (source genes (mRNA) [2]; urinary bladder cancer (N = 10) vs panel of normal tissues): +

From patent publication US20170189504A1, “NOVEL PEPTIDES AND COMBINATION OF PEPTIDES FOR USE IN IMMUNOTHERAPY AGAINST VARIOUS CANCERS” (immatics biotechnologies GmbH, priority 2015, published 2017)
